From publication PMC8517398 come the findings set out here.

These are yes or no findings as the source states them, for the method shown. Binding seen in cells or lysates may run through a third protein.

This assay deals with Toll-like receptor 4 (human (endogenous in A549 / H460)) (UniProt O00206). Nature of the assay: co-IP; anti-TLR4 antibody (sc-293072, Santa Cruz) immobilised on resin (Pierce Co-Immunoprecipitation kit); lysates of NC and mCALR cells incubated with the resin at 4°C overnight; IgG antibody as negative control.

Take “cytoplasmic CALR (from UniProt P27797 18-417)”: the binding result is given as “no binding”.
